Results are given in words; binding and its absence hold for the method and conditions named. In cells and extracts the contact can be indirect. Some entries that bind do so weakly or less than the wild type. For some of these results: Tags and fused reporters may be left off the sequences shown.
Tests used:
[1] = molecular target: T1, GST-GIV-CT (aa 1660-1870; mammalian p-CEFL vector) (UniProt Q3V6T2); experiment: pull-down
T1 sequence: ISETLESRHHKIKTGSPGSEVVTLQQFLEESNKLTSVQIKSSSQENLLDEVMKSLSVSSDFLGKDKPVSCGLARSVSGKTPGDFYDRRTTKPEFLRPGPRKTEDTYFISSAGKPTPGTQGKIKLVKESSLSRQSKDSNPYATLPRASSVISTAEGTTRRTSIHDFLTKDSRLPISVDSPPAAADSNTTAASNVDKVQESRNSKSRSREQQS

Sequences of proteins named here, by UniProt entry; tags and fusion partners are left off. A change or cut given only in a name is not applied to a line headed by its entry.
UniProt Q9HC29, whole entry: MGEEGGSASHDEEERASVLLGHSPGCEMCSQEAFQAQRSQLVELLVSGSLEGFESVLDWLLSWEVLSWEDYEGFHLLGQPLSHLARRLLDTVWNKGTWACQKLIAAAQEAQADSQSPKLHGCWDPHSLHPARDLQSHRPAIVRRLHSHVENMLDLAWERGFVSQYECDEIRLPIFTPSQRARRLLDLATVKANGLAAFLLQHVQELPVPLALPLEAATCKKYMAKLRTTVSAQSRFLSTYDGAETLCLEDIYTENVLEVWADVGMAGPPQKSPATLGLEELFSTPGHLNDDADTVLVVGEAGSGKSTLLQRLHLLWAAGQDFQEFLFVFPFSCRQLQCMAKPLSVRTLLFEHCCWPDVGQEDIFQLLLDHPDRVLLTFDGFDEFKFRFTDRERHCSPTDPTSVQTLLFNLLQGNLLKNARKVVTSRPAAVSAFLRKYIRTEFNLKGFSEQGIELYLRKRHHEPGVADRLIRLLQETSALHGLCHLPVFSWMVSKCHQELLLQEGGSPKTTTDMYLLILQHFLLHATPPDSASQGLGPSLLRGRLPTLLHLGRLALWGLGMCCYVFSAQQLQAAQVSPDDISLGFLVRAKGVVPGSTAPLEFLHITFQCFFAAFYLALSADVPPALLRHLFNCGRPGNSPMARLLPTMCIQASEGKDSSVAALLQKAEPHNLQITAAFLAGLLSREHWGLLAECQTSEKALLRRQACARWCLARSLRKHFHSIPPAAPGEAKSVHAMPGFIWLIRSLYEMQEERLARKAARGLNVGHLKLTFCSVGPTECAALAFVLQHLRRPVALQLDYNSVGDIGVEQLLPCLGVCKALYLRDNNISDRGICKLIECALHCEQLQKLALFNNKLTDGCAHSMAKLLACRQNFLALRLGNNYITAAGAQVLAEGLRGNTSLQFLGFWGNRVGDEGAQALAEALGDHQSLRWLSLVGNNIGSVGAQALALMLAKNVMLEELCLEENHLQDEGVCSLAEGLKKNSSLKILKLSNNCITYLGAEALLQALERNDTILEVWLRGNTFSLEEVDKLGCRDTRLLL

[2] = molecular target: GIV-FLAG (C-terminal FLAG-tagged GIV full length protein) (UniProt Q3V6T2); experiment: co-IP
[3] = molecular target: HA-NOD2 (N-terminal HA-tagged NOD2 full length protein, wild type) (UniProt Q9HC29); experiment: co-IP

| Substance | binding [1] | binding [2] | binding [3] |
| --- | --- | --- | --- |
| HA-NOD2 (N-terminal HA-tagged NOD2 full length protein, wild type) (from UniProt Q9HC29 1-1040) | binds | binds | binds |
| HA-NOD2 G908R (from UniProt Q9HC29 1-1040) | binds | – | – |

Source: doi:10.1101/2022.04.26.489574
